Here are results for one substance from paper PMC10992996.

By UniProt entry, the sequences of proteins in these tests, tags left out. Residues count along the entry.
UniProt Q5IJ48, residues 29-1285: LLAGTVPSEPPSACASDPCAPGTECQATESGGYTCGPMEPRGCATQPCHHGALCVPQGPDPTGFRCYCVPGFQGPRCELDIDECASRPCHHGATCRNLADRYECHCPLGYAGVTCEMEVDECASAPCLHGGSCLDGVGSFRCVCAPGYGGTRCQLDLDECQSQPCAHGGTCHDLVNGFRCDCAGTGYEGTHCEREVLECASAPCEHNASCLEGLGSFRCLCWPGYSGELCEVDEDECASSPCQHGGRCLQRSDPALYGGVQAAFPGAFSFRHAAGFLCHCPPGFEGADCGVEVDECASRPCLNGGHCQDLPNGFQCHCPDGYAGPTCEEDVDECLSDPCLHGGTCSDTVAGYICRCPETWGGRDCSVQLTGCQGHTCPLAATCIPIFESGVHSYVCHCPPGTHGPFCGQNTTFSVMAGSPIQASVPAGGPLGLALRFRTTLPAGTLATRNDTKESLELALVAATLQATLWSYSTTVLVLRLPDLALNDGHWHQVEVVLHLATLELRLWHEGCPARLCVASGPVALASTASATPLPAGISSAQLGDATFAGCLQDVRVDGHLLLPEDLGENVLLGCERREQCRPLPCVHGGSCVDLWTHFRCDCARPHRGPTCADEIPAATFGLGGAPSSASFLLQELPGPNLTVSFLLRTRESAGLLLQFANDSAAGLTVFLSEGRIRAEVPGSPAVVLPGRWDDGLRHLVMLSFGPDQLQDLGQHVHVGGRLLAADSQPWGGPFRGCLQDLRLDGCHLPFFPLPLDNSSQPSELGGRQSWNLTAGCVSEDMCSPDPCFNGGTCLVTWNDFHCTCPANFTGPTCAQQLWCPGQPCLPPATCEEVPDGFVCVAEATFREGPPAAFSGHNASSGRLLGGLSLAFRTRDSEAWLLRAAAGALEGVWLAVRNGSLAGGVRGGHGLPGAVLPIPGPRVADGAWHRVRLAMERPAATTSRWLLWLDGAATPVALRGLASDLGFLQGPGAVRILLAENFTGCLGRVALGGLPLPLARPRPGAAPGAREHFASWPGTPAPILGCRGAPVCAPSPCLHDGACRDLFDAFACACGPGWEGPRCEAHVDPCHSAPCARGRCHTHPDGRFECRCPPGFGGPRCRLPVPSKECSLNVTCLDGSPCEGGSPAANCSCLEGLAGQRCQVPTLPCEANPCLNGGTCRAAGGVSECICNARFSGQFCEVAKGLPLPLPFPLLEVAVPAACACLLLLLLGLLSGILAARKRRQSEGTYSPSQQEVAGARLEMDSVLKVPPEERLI

These are yes or no findings as the source states them, for the method shown. In cells and extracts the contact can be indirect. Some binding calls cover weakened binding; strength is not graded here. For some assays here: Sequences can lack the tags named with a protein.

Test [1] concerns the target T1, Human CRB3 (Crumbs homolog 3) (human) (UniProt Q9BUF7).
T1 sequence: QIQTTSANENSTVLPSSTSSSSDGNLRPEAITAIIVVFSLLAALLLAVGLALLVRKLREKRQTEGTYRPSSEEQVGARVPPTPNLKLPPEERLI
Briefly: co-IP; HEK293T cells co-transfected pairwise with a FLAG and an HA construct, 48 h; lysis in TBS (30 mM Tris-HCl pH 7.4, 150 mM NaCl) with 0.5% Nonidet P40; FLAG-IP on ANTI-FLAG M2 Affinity Gel 60-90 min at 4°C, elution with FLAG peptide; Western blot with HA and FLAG antibodies; for mutants HA/FLAG signal in eluates relative to WT, three biological replicates. For orientation: In western blotting, separated proteins are transferred to a membrane and probed.

The target of test [2] is T2, CRB1-FLAG p.C948Y (human) (UniProt P82279).
T2 sequence: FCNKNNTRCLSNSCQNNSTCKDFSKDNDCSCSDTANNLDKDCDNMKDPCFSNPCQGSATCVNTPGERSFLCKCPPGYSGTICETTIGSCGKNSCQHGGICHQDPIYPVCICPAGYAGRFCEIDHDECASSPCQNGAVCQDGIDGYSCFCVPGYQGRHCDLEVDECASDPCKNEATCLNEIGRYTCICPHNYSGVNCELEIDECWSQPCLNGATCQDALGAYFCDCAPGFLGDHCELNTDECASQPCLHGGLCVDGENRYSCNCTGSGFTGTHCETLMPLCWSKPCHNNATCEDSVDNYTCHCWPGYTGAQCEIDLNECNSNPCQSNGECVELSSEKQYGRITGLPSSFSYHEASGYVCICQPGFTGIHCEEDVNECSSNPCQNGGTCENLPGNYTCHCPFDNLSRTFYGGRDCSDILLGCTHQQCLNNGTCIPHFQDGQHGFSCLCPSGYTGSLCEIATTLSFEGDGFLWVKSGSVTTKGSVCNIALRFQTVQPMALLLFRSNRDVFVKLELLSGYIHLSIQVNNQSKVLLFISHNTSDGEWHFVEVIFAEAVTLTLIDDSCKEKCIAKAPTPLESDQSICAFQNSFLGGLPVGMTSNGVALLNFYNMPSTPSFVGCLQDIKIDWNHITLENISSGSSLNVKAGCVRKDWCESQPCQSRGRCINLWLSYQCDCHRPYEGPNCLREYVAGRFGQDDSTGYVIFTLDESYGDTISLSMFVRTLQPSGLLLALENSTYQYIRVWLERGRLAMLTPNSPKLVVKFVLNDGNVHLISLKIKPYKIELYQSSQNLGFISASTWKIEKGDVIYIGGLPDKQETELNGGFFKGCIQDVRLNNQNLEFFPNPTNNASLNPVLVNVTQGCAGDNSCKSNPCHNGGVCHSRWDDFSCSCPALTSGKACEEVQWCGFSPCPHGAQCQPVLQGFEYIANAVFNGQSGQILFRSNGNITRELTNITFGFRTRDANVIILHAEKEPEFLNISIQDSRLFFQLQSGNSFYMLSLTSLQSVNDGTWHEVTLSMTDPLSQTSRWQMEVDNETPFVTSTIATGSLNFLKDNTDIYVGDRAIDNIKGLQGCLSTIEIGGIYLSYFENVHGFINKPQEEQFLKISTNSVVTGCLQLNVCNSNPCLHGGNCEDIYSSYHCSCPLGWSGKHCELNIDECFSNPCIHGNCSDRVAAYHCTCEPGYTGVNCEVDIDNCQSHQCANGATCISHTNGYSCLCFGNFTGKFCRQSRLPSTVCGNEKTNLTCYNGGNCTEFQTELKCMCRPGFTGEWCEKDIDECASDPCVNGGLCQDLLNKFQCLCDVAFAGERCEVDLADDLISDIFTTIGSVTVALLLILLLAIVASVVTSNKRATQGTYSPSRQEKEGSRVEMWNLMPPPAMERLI
The description is as above.

In the case of “Human canonical CRB2 (Crumbs homolog 2) (from UniProt Q5IJ48-1 29-1285)”, the figures for the binding entry in test [1] and in test [2] were “no binding” and “binds”, respectively.
